Patent US6228836A, “Permucous preparation” (Mitsubishi-Tokyo Pharmaceuticals, Inc., priority 1997, dated 2001)
At least one peptide structure holds a part that was inferred or is arguable (an end, a ring closure or a residue). *1 amine or outer side, *2 acyl side, *3 side chain or, on linkers, in order; H or OH if unused. Where a SMILES comes first, the peptide text is derived from it. Bridges are numbered along the chain shown (N, C = ends). [ ]: non-standard residue; d: D form. X1 = O=C(CC1(S[*:2])CCSCC1)[*:1]; Pen = CC(C)(S)[C@H](N)C(=O)O

System: uterine motility
Test: Uterine motility response rate (oxytocin-induced contraction, estrus-induced female rats)
Type: in vivo
Details: for Response rate (%) on uterine motility: intravenous injection, 10 μg/kg

## CC[C@H](C)[C@@H]1NC(=O)[C@@H](Cc2c[nH]c3ccccc23)NC(=O)CC2(CCSCC2)SSC(C)(C)[C@@H](C(=O)N2CCC[C@H]2C(=O)N[C@@H](CCCNC(=N)N)C(=O)NCC(N)=O)NC(=O)[C@H](CC(N)=O)NC(=O)[C@H](CCC(N)=O)NC1=O [Antago-3] ([dW]IQN[Pen]PRG-NH2; linker N-5 via X1)
Intravenous administration of aqueous solution, dosage 10 μg/kg
  Inhibition of uterine motility (in words): uterine motility was inhibited
0.5 hr (30 minutes)
  Response rate (%) on uterine motility: 30%
1.0 hr
  Response rate (%) on uterine motility: 5%
Pernasal administration
  Drug effect / absorption enhancing effect on uterine motility compared with intravenous administration (in words): not possible to express a similar drug effect with intravenous administration even at a dose of 400 μg/kg
Pernasal administration of aqueous solution
  Dosage required to obtain the same drug effect as the intravenous administration: at least 400 μg/kg
